Drawing on PMC4695026, this text covers binding for one molecule.

Results are given in words; binding and its absence hold for the method and conditions named. Binding seen in cells or lysates may run through a third protein. Binding calls can cover weak binding; strength is not graded here.

This assay concerns the target N-terminal region of STMN1 (GFP-tagged STMN1 mutant). Nature of the assay: co-IP; cells transfected with tagged constructs (Myc-tagged PIWIL1 or its deletion mutants, GFP-tagged STMN1 mutants); lysate with 1-3 ug antibody or IgG overnight, protein A+G agarose beads 2 h; Western blot. (A western blot detects proteins with antibodies after separation by electrophoresis.)

B1: RLIM (enzyme, UniProt Q9NVW2 1-624)
chain: MENSDSNDKGSGDQSAAQRRSQMDRLDREEAFYQFVNNLSEEDYRLMRDNNLLGTPGESTEEELLRRLQQIKEGPPPQNSDENRGGDSSDDVSNGDSIIDWLNSVRQTGNTTRSGQRGNQSWRAVSRTNPNSGDFRFSLEINVNRNNGSQNSENENEPSARRSSGENVENNSQRQVENPRSESTSARPSRSERNSTEALTEVPPTRGQRRARSRSPDHRRTRARAERSRSPLHPMSEIPRRSHHSISSQTFEHPLVNETEGSSRTRHHVTLRQQISGPELLSRGLFAASGTRNASQGAGSSDTAASGESTGSGQRPPTIVLDLQVRRVRPGEYRQRDSIASRTRSRSQTPNNTVTYESERGGFRRTFSRSERAGVRTYVSTIRIPIRRILNTGLSETTSVAIQTMLRQIMTGFGELSYFMYSDSDSEPTGSVSNRNMERAESRSGRGGSGGGSSSGSSSSSSSSSSSSSSSSSSSSPSSSSGGESSETSSDLFEGSNEGSSSSGSSGARREGRHRAPVTFDESGSLPFLSLAQFFLLNEDDDDQPRGLTKEQIDNLAMRSFGENDALKTCSVCITEYTEGNKLRKLPCSHEYHVHCIDRWLSENSTCPICRRAVLASGNRESVV
Regarding B1, the binding entry was “binds”.
